The text below walks through data of PubChem BioAssay AID210 (DTP/NCI, 2004).

In the test the test system is CD2F1 mice, ip Colon 26 adenocarcinoma, median survival T/C. As to the kind of experiment: NCI In Vivo Anticancer Drug Screen. Data for tumor model Colon 26 Adenocarcinoma (intraperitoneal) in CD2F1 (CDF1) mice. As to conditions: T/C endpoint: median survival time, higher T/C = longer survival. How it is done:
The antitumor activity of compounds was measured in mice bearing transplantable tumors. Survival or tumor size were measured and the results are expressed as the measurement made in the treated group (T) divided by the measurement made in the vehicle treated control group (C). The tumor model used in this assay is Colon 26 Adenocarcinoma (intraperitoneal) in CD2F1 (CDF1) mice

The mark [1] stands for this setting: dose: 100.0 mg/kg/injection, schedule: Q04DX003 (ip), vehicle: Klucel (hydroxypropylcellulose) (HPC).
The mark [2] stands for this setting: dose: 200.0 mg/kg/injection, schedule: Q04DX003 (ip), vehicle: Klucel (hydroxypropylcellulose) (HPC).
[3] abbreviates: dose: 25.0 mg/kg/injection, schedule: Q04DX003 (ip), vehicle: saline with Tween-80.
Where [4] appears, read: dose: 50.0 mg/kg/injection, schedule: Q04DX003 (ip), vehicle: saline with Tween-80.
Setting [5] is: dose: 100.0 mg/kg/injection, schedule: Q01DX009 (ip), vehicle: saline with Tween-80.
Where [6] appears, read: dose: 100.0 mg/kg/injection, schedule: Q04DX003 (ip), vehicle: saline with Tween-80.
Where [7] appears, read: dose: 200.0 mg/kg/injection, schedule: Q04DX003 (ip), vehicle: saline with Tween-80.
Setting [8] is: dose: 400.0 mg/kg/injection, schedule: Q04DX003 (ip), vehicle: saline with Tween-80.
[9] abbreviates: dose: 800.0 mg/kg/injection, schedule: Q04DX003 (oral), vehicle: saline with Tween-80.
[10] abbreviates: dose: 32.0 mg/kg/injection, schedule: Q01DX009 (ip), vehicle: acid diluted with saline.
[11] abbreviates: dose: 64.0 mg/kg/injection, schedule: Q01DX009 (ip), vehicle: acid diluted with saline.

The structures appear in SMILES notation. The list does not hold the whole screen: it is rich in T/C values a quarter to a half above the control, in often repeated tests (any T/C) and in doses without a T/C. Further doses and runs are listed elsewhere. T/C: endpoint of the treated group in % of that of the vehicle group. Some entries give survivors of the animals treated and no T/C: the source holds a T/C of zero for them, seemingly a mark for toxic or unscored doses. Some survivor counts are full or nearly so, which does not show that the dose was tolerated: the source hardly ever lists a survival T/C far under the control, and the zero likely stands for such cases as well. Counts of survivors are from the toxicity check (mostly the fifth day) where no day follows; animals may have died later. Schedules are NCI's codes, read here as Q, the interval in days (D) or hours (H), X, the number of doses. Some entries were tested several times; their values stand side by side, smallest first. Where survival is the endpoint, the PubChem record calls one and a half times the control and up active, and a quarter to a half above the control has no call in these data; cut-offs in other NCI protocols can differ. Some T/C values are followed by the survivors on the day toxicity was checked, most often the fifth; without a count, all were alive then. Marks such as (2×) stand for listed records that agree.

With `Nc1ncn(C2OC(CO)C(O)C2O)c(=O)n1` (stereo not drawn), the T/C by setting is: (dose: 1.0 mg/kg/injection, schedule: Q04DX003 (ip), vehicle: saline, evaluated on day 60) 104 % of control; (dose: 1.0 mg/kg/injection, schedule: Q04DX003 (ip), vehicle: saline, evaluated on day 70) 99, 100, 113, 123, 157 % of control; (dose: 2.0 mg/kg/injection, schedule: Q04DX003 (ip), vehicle: saline, evaluated on day 60) 106 % of control; (dose: 2.0 mg/kg/injection, schedule: Q04DX003 (ip), vehicle: saline, evaluated on day 70) 105, 106, 114, 131 [9 of 10 alive], 137 % of control; (dose: 4.0 mg/kg/injection, schedule: Q04DX003 (ip), vehicle: saline, evaluated on day 60) 110 % of control; (dose: 4.0 mg/kg/injection, schedule: Q04DX003 (ip), vehicle: saline, evaluated on day 70) 100, 109, 122, 127, 189 % of control. The T/C is, setting by setting: (dose: 8.0 mg/kg/injection, schedule: Q04DX003 (ip), vehicle: saline, evaluated on day 60) 100 % of control; (dose: 8.0 mg/kg/injection, schedule: Q04DX003 (ip), vehicle: saline, evaluated on day 70) 90, 107, 119, 215, 234 % of control; (dose: 16.0 mg/kg/injection, schedule: Q04DX003 (ip), vehicle: saline, evaluated on day 60) 117 % of control [9 of 10 alive]; (dose: 16.0 mg/kg/injection, schedule: Q04DX003 (ip), vehicle: saline, evaluated on day 70) 117, 124, 128, 182 % of control. The survivor count by setting is: (dose: 16.0 mg/kg/injection, schedule: Q04DX003 (ip), vehicle: saline) 10 of 10; (dose: 35.0 mg/kg/injection, schedule: Q04DX003 (iv), vehicle: saline) 10 of 10.
Take `Cc1cn(C2CC3[O][Sn]([c]4ccccc4)([c]4ccccc4)[O]CC3O2)c(=O)[nH]c1=O` (stereo not drawn): the survivor count (dose: 200.0 mg/kg/injection, schedule: Q04DX002 (ip), vehicle: saline) is 7 of 8.
As to `[I][Hg][CH2]C1OCCOC1[CH2][Hg][I]` (stereo not drawn), the survivor count under setting [1] was 9 of 10; the survivor count under setting [2] is given as 7 of 10; the survivor count (dose: 400.0 mg/kg/injection, schedule: Q04DX003 (ip), vehicle: Klucel (hydroxypropylcellulose) (HPC)) is 0 of 10.
For `Cc1ccc(C(=O)[O][Hg][CH2]C2COC([CH2][Hg][O]C(=O)c3ccc(C)cc3)CO2)cc1` (stereo not drawn), the survivor count (dose: 50.0 mg/kg/injection, schedule: Q04DX003 (ip), vehicle: Klucel (hydroxypropylcellulose) (HPC)) is 8 of 10; the survivor count under setting [1] is 0 of 10; the survivor count under setting [2] is on record as 2 of 10.
In the case of `CC1(CO)C(O)CCC2(C)C1CCC1CC3CC12CCC3(O)CO` (stereo not drawn), the T/C runs as follows: under setting [3], 96, 109, 113 % of control; (dose: 50.0 mg/kg/injection, schedule: Q04DX002 (ip), vehicle: saline with Tween-80, evaluated on day 60) 102, 106, 129, 135, 166 % of control; (dose: 50.0 mg/kg/injection, schedule: Q04DX002 (ip), vehicle: saline with Tween-80, evaluated on day 75) 106 % of control; under setting [4], 109, 112, 124, 130 % of control; (dose: 100.0 mg/kg/injection, schedule: Q04DX002 (ip), vehicle: saline with Tween-80, evaluated on day 60) 127, 135 (2×), 151, 171, 188 % of control; (dose: 100.0 mg/kg/injection, schedule: Q04DX002 (ip), vehicle: saline with Tween-80, evaluated on day 75) 121 % of control. Also, the T/C under setting [6] was 110, 115, 124, 126 % of control; the T/C (dose: 200.0 mg/kg/injection, schedule: Q04DX002 (ip), vehicle: saline with Tween-80, evaluated on day 60) is reported as 143, 153, 162, 164, 191 % of control; the T/C (dose: 200.0 mg/kg/injection, schedule: Q04DX002 (ip), vehicle: saline with Tween-80, evaluated on day 75) is 119 % of control; the T/C under setting [7] is 115, 126, 130, 150 % of control; the T/C (dose: 200.0 mg/kg/injection, schedule: Q04DX003 (oral), vehicle: saline with Tween-80) is 101 (2×), 109, 135 % of control; the T/C (dose: 400.0 mg/kg/injection, schedule: Q04DX002 (ip), vehicle: saline with Tween-80, evaluated on day 60) is 125, 139, 159, 159 [8 of 10 alive], 191, 204 % of control. Moreover, the T/C reads like this: (dose: 400.0 mg/kg/injection, schedule: Q04DX002 (ip), vehicle: saline with Tween-80, evaluated on day 75) 173 % of control; under setting [8], 132, 142, 156, 187 % of control; (dose: 400.0 mg/kg/injection, schedule: Q04DX003 (oral), vehicle: saline with Tween-80) 99, 103, 104, 171 % of control; (dose: 800.0 mg/kg/injection, schedule: Q04DX002 (ip), vehicle: saline with Tween-80, evaluated on day 60) 141 [8 of 10 alive], 154, 166 % of control; (dose: 800.0 mg/kg/injection, schedule: Q04DX002 (ip), vehicle: saline with Tween-80, evaluated on day 75) 118 % of control [9 of 10 alive]; under setting [9], 105, 107, 348 % of control. Further, the survivor count is, setting by setting: under setting [3], 9 of 10; (dose: 50.0 mg/kg/injection, schedule: Q01DX009 (ip), vehicle: saline with Tween-80) 10 of 10; under setting [4], 0 of 10; under setting [5], 10 of 10; under setting [6], 0 of 10; (dose: 200.0 mg/kg/injection, schedule: Q01DX009 (ip), vehicle: saline with Tween-80) 10 of 10. In addition, the survivor count reads like this: (dose: 200.0 mg/kg/injection, schedule: Q04DX002 (ip), vehicle: saline with Tween-80) 10 of 10; under setting [7], 0 of 10; (dose: 400.0 mg/kg/injection, schedule: Q01DX009 (ip), vehicle: saline with Tween-80) 8 of 10; under setting [8], 0 of 10; (dose: 800.0 mg/kg/injection, schedule: Q04DX002 (ip), vehicle: saline with Tween-80) 4 of 10, 7 of 10, 9 of 10; under setting [9], 6 of 6. Moreover, the survivor count (dose: 1600.0 mg/kg/injection, schedule: Q04DX003 (oral), vehicle: saline with Tween-80) was 1 of 6.
As to `CC1(CO)C(=O)CCC2(C)C1CCC1CC3CC12CCC3(O)CO` (stereo not drawn), the survivor count was 10 of 10 (dose: 300.0 mg/kg/injection, schedule: Q04DX002 (ip), vehicle: distilled water + Tween-80) and 10 of 10 (dose: 600.0 mg/kg/injection, schedule: Q04DX002 (ip), vehicle: distilled water + Tween-80).
In the case of `CCCNCCNc1ccc(NCCNCCC)c2c1C(=O)c1ccccc1C2=O`, the survivor count by setting is: under setting [10], 10 of 10; under setting [11], 1 of 10.
Regarding `O=S(=O)(O)O`, under setting [5], the survivor count is 10 of 10.
In the case of `O=C1c2ccccc2C(=O)c2c(NCCN3CCNCC3)ccc(NCCN3CCNCC3)c21`, under setting [10], the T/C is 129 % of control. The survivor count under setting [11] was 3 of 10.
`COc1cccc2c1C(=O)c1c(O)c3c(c(O)c1C2=O)C[C@@](O)(C(=O)CO)C[C@@H]3OC1CC(OC(C)=O)C(OC(C)=O)C(C)O1` (stereo partly drawn): under “dose: 174.0 mg/kg/injection, schedule: Q07DX002 (sc), vehicle: distilled water + Tween-80”, the T/C was 142 % of control.
